## Library screening results

By UniProt entry, the sequences of proteins in these tests, tags left out.
UniProt E9BF75, entry or part of it: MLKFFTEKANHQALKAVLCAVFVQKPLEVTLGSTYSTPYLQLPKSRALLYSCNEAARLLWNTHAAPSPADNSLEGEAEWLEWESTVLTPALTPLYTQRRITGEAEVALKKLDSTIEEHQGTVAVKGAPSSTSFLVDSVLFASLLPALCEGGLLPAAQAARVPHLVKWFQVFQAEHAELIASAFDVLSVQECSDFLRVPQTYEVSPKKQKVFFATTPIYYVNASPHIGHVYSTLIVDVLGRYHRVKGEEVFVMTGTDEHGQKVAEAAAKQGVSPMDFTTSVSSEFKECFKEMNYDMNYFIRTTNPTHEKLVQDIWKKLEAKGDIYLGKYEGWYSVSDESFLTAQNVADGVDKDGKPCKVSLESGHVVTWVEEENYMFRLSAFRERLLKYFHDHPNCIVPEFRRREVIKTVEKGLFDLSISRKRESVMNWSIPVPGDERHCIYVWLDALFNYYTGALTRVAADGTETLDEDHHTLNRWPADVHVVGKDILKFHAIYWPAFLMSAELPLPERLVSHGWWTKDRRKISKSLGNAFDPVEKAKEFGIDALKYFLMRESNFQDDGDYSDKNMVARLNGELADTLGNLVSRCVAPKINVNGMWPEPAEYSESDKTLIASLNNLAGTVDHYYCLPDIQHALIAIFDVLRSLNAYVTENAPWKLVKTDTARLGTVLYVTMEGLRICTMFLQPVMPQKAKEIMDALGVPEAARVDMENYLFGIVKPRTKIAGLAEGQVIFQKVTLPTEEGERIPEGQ

Measurements from “University of Dundee, Small-Polar-MMV Screening Library” (2021), ChEMBL document CHEMBL3988442.

All values are in %. How 0% and 100% were set is not recorded. Most values in the screen are low, and negative values occur. The compounds are a random part of those screened.

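Primary screen of methionyl-tRNA synthetase; the read-out is not stated. Target: Methionyl-tRNA synthetase (putative), Leishmania donovani (UniProt E9BF75). The test concentration is not given. The values are filed as inhibition. Of about 68,000 compounds tested this way, about 24 (0.035%) reached 50% or more in at least one test.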

SMILES | Inhibition
Cc1ccc(-c2noc(CN3CCn4c(nnc4C4CC4)C3)n2)cc1 | 12.22
Cn1ccnc1CN1C[C@@H](CN2CCCCCC2)[C@@H](CO)C1 | -1.044
CC(C)Oc1ncccc1CNC(=O)N1CCOCC1 | 15.47
COc1nn(C)c2c1CCCN(S(=O)(=O)c1cccc(F)c1)C2 | 13.4
CC(C)c1cc(C(=O)N2CCN(Cc3ccsc3)CC2)n[nH]1 | 11.52
Cc1nn(C)c(C)c1C1COCCN1c1ncncc1Br (centres undefined) | 15.38
CCC(CC)NC(=O)c1ccc2nnc(C3CCN(S(C)(=O)=O)C3)n2c1 (centres undefined) | 1.875
O=C(NCCCc1nc(=O)[nH][nH]1)c1ccc(Cl)cn1 | 10.61
COCc1noc(-c2ccc(N(C)Cc3c(C)n[nH]c3C)nc2)n1 | 14.72
Cc1cc(C)nc(C2CCN(C(=O)c3cnc(N(C)C)nc3)C2)n1 (centres undefined) | 19.94
CCc1ccc(CN2CCC3(CC2)C(=O)N(C)CCN3CC2CC2)cc1 | 7.222
c1cnc2c(c1)CN(C1CCOC1)CCN2CC1CC1 (centres undefined) | 11.35
NC(=O)CN1CCC(NC(=O)N2CCCC2c2ccncc2)CC1 (centres undefined) | 4.348
Cc1cnn(C2CCCN(C(=O)c3cccc(Cn4ccnc4)c3)C2)c1 (centres undefined) | 7.639
O=C(c1ccc(S(=O)(=O)NC2CCC2)cc1)N1CC[C@H]2CNC[C@H]21 | 5.865
COc1ccc(N2CCN(Cc3nc(CSC)no3)CC2=O)cc1 | 15.48
Cc1nc2n(n1)CC(NCC(=O)N(C)Cc1cccs1)CC2 (centres undefined) | 5.226
Cc1nn(C)c(N2CCCN(C)CC2)c1CNC(=O)CC(C)(C)C | 9.922
CN(C(=O)C1CCN(Cc2cnc3ccccn23)CC1)c1ccccc1 | -0.2793
COc1ccc(CC(C)(O)CNC(=O)c2cccs2)cc1 (centres undefined) | 5.072
O=C(Cc1ccccc1)N1CCCC2(COCCN(CC3CC3)C2)C1 (centres undefined) | 9.375
Cc1nc(CNC(=O)Nc2ccc3c(c2)CCCC(=O)N3)sc1C | 14.49
CCn1nnc(NCc2cc(Cl)cc(Cl)c2OC)n1 | -2.102
O=C(O)[C@@H]1CCN(C(=O)Cc2ccccn2)[C@@H]1c1ccc(F)cc1 | 11.02
CN1CCC(NC(=O)c2cc(F)cc(Cl)c2O)C1=O (centres undefined) | 22.86
CCc1noc(CN2CCN(C(=O)C3CC3)CC2)n1 | 18.87
Cc1noc(C2CCCN(C(=O)c3ccc(Br)cc3F)C2)n1 (centres undefined) | 18.75
CCCc1cc(C(=O)N2C[C@H]3CC=C(C)C[C@H]3C2)ccn1 | 5.882
CN(c1ccccc1C(=O)O)S(=O)(=O)c1cccc2cccnc12 | 18.05
c1ccc(COC[C@@H]2CCC[C@@]23CNCCO3)nc1 | 1.034
Cc1cc(-n2c(C)cn(CN(C)CC3CC3)c2=O)no1 | 14.02
CC(C)c1noc(-c2ccc(NCC3CCCOC3)nc2)n1 (centres undefined) | 11.88
Cc1ccc(NCCNC(=O)C2Cc3cc(C)c(C)cc3O2)nn1 (centres undefined) | 4.935
CN(Cc1cc(Br)cs1)Cc1nnsc1Cl | 11.92
Cc1cc(C(=O)N2CCN(Cc3ccco3)C(CCO)C2)cc(=O)[nH]1 (centres undefined) | -5.245
COc1ccccc1NC(=O)Cn1c(=O)nc(N)c2cc(C)sc21 | 8.01
O=C(CN1CCOC(Cn2cccn2)C1)Nc1ccncc1 (centres undefined) | 3.78
CC(C)CN1CCc2[nH]cnc2C12CCN(C(=O)c1cc[nH]n1)CC2 | 11.73
CC(=O)Nc1ncc(S(=O)(=O)N2CCC(C)CC2)s1 | 8.333
O=C1CCC(C(=O)N(Cc2ccsc2)CC2CCCO2)=NN1 (centres undefined) | 11.73
CC(Cn1cccn1)NC(=O)NCCc1ccc(Cl)s1 (centres undefined) | 5.164
COc1ccccc1C(NC(=O)C1CCCC1)c1noc(C)n1 (centres undefined) | 13.54
Cn1ccc(C(=O)NCc2ccccc2CN2CCCC2)cc1=O | 11.93
COc1cc(C(=O)NCc2cc(N3CCOCC3)ncn2)ccn1 | 17.69
NCc1cn(CC2CCCN(C(=O)NCc3ccc(Cl)cc3)C2)nn1 (centres undefined) | 12.39
Cc1ccccc1N1CCCN(C(=O)c2nn(C)cc2Cl)CC1 | 0.6969
CN(C)[C@@H]1CCN(C(=O)NC2CCCC2)[C@H]1Cc1cnn(C)c1 | 3.136
Cc1ccc(-c2ncc(C(=O)NCCNc3ncccn3)s2)c(C)c1 | 13.07
COc1ccc(C[C@H]2CN(c3cc(OC)ncn3)CC[C@@H]2OC)cc1 | 11.4
O=S(=O)(Cc1cccc2cccnc12)NC(CO)c1ccco1 (centres undefined) | 2.514
CCc1nnc(CN2CCCC(c3cc(C(N)=O)[nH]n3)C2)o1 (centres undefined) | 18.33
CC(Cn1cc(Br)cn1)C(=O)Nc1ccn(C)n1 (centres undefined) | 24.07
CCCc1cncnc1N1CCC(NCc2ccc(O)cc2)CC1 | 11.98
COC(=O)c1cc(CN2CCN(c3ncccc3C)CC2)ccc1O | 3.922
COc1ccc(C)c2c1N(C(=O)c1ccc3nnc(C)n3c1)CCC2 | 7.453
CCc1cnc(N2CCc3ncnc(N4CCN(C)CC4)c3CC2)nc1 | 5.226
Cc1noc(CN(C)CC2CCCN(CCc3ccc(Cl)cc3)C2)n1 (centres undefined) | 15.23
CC(O)C1CCN(C(=O)Nc2nc(-c3ccccc3)ns2)CC1 (centres undefined) | 14.09
Cn1nnc2c1CCN(Cc1ccco1)C2COCc1ccccc1 (centres undefined) | 2.055
CC1CN(C)c2ccccc2CN1C(=O)NCc1ccon1 (centres undefined) | 10.14
CCOc1ccc(Cl)cc1CCNC(=O)c1ccc(=O)n(C)c1 | 13.73
CCc1nc(C)c(C(=O)NCCNc2ncnc3sccc23)s1 | 8.993
CC(C(=O)NCCCN1CCN(c2ccccc2)CC1)n1cncn1 (centres undefined) | 17.71
Cc1cc(C2CCCN(C(=O)c3cnn(C)c3)C2)ccn1 (centres undefined) | 19.52

Repeated from the top, 3 entries:

{"smiles": "Cc1ccc(-c2noc(CN3CCn4c(nnc4C4CC4)C3)n2)cc1", "Inhibition": 12.22}
{"smiles": "Cn1ccnc1CN1C[C@@H](CN2CCCCCC2)[C@@H](CO)C1", "Inhibition": -1.044}
{"smiles": "CC(C)Oc1ncccc1CNC(=O)N1CCOCC1", "Inhibition": 15.47}